From PubChem BioAssay AID662 (National Center for Advancing Translational Sciences (NCATS), 2007)
Several values for one entry are separate records, joined by “and”; a condition that tells them apart may be missing. Equal entries are not always repeated. Some of the results follow. Further columns of the screen follow, without active or inactive calls. Most of these compounds were active or inconclusive in the main read-out, so they are no random draw. Potencies come from curve fits of mixed quality, noted in brackets.

test: Cell signaling CRE-BLA (Fsk stim); conditions: CHO CRE-bla reporter (cAMP response element driving beta-lactamase), forskolin EC10, beta-lactamase ratio; measured here: 460 nm blue channel
Summary of the method: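 Modulation of forskolin-driven signalling is measured in CHO cells carrying a CRE-controlled beta-lactamase reporter. Cells are stimulated with EC10 NKH 477 in the presence of titrated compound for 3 h at 37 °C, then loaded with CCF4 for 2 h at room temperature.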

SMILES | AC50
CCOC(=O)c1oc2ccc(S(=O)(=O)N3CCOCC3)cc2c1C | 25.1 µM [rising, single point]
CCN(CC)C(=O)C1CCCN(Cc2ccc(N(C)C)cc2)C1 (centres undefined) | 1.26 µM [falling, partial curve, poor fit]
COCCn1c(=O)c(CCc2ccccc2)nc2cnc(Nc3ccccc3)nc21 | 3.16 µM [rising, full curve]
O=C(Nc1nc(-c2ccco2)c(-c2ccco2)s1)C1CC(=O)N(c2ccc3c(c2)OCCO3)C1 (centres undefined) | 5.01 µM [falling, single point]
CC(=O)c1c[nH]c2ccc(C)cc2c1=O | 3.98 µM [rising, single point]
c1ccc(Nc2cccc3ccccc23)cc1 | 10 µM [rising, partial curve]
CN1CCN(S(=O)(=O)c2cccc(S(=O)(=O)c3ccc(Cl)c(Cl)c3)c2)CC1 | 0.794 µM [rising, partial curve]
CCCC(=O)Nc1nc2ccc3nc(C)sc3c2s1 | 10 µM [rising, single point]
Cn1c(=O)c2c(nc(NCc3ccccc3)n2C)n(C)c1=O | 12.6 µM [rising, single point]
Cc1nnc(SCC(=O)Nc2sccc2C(N)=O)n1Cc1ccccc1 | 20 µM [rising, single point]
O=C(O)C1CCCCC1C(=O)NCCCN1CCOCC1 (centres undefined) | 0.316 µM [falling, partial curve]
CN1CCN(c2ncc3nc(-c4ccc(F)cc4)c(=O)n(Cc4cccs4)c3n2)CC1 | 2.51 µM [rising, full curve]
COc1ccc(N(CC(=O)NCCSC(C)(C)C)S(C)(=O)=O)c(OC)c1 | 0.631 µM [rising, full curve]
CCn1c(N)c(C(=O)NCc2ccc3c(c2)OCO3)sc1=S | 20 µM [rising, single point]
COc1cc(C2C(C(=O)c3ccco3)=C(O)C(=O)N2c2cc(C)on2)cc(Br)c1O (centres undefined) | 25.1 µM [falling, single point]
COc1ccc(C(c2sc3ncnn3c2O)N2CC(C)OC(C)C2)cc1OC (centres undefined) | 10 µM [rising, partial curve]
Cc1cccc(CNc2cc(-c3ccoc3)ncn2)c1 | 12.6 µM [rising, partial curve]
COc1ccc2nc(CC(C)(C)CC(=O)O)c[n+]([O-])c2c1 | 3.98 µM [rising, partial curve]
C=CCNC(=O)c1ccccc1Cl | 5.01 µM [falling, single point]
CC(C)(C)c1cc(Cc2ccccc2)[nH]n1 | 10 µM [rising, partial curve]
COC(=O)c1ccc(COc2ccc3c(C)c(C)c(=O)oc3c2)o1 | 0.00316 µM [falling, full curve, poor fit]
CCn1c2ccccc2c2nnc(SCC(=O)c3ccccc3)nc21 | 3.16 µM [rising, partial curve]

SMILES | AC50
COc1cc2ccc(=O)oc2c(O)c1OCC=C(C)C | 15.8 µM [rising, partial curve] and 10 µM [rising, single point]
COc1ccc(NC(=O)Cn2nnc(C(=O)NCc3ccccc3)c2N)cc1Cl | 2.51 µM [falling, partial curve, poor fit]
Cn1c(=O)c2c(ncn2CC(=O)N2CCN(c3ccccc3F)CC2)n(C)c1=O | 0.398 µM [rising, partial curve]
Cn1c(N2CCCC2)nc2c1c(=O)n(Cc1ccc(F)cc1)c(=O)n2C | 3.16 µM [rising, full curve]
O=C(Cc1ccccc1)NCCSCc1ccco1 | 0.631 µM [falling, full curve, poor fit]
CCOC(=O)c1cnc2nc(C)[nH]n2c1=O | 25.1 µM [rising, partial curve, poor fit]
Cc1sc2ncnc(SCC(=O)NC(=O)NCc3ccco3)c2c1C | 12.6 µM [rising, partial curve]
CCn1ncc(Br)c1C(=O)Nc1ccc(F)cc1F | 10 µM [rising, partial curve]
O=C(O)CCc1ccc(-c2ccc(Br)cc2)n1CC(=O)O | 1 µM [rising, single point]
O=C(Nc1ccc(Cl)cc1)c1ccsn1 | 0.0501 µM [falling, full curve, poor fit]
Cc1c(NC(=O)C2CCCNC2=O)c(=O)n(-c2ccccc2)n1C (centres undefined) | 31.6 µM [falling, partial curve]
c1ccc2c(c1)oc1c(Nc3ccc4c(c3)OCO4)ncnc12 | 1.58 µM [rising, full curve]
CCCc1cc(=O)oc2cc(C)c3c(C)coc3c12 | 10 µM [rising, partial curve]
O=C1OC2(c3ccc(O)cc3Oc3cc(O)ccc32)c2c1c(-c1ccccc1)c(-c1ccccc1)c(-c1ccccc1)c2-c1ccccc1 | 0.00794 µM [falling, full curve, poor fit]
COc1cc2c(cc1OC)-c1cc3nc4ccccc4nc3n1C(C)(C)C2 | 15.8 µM [rising, partial curve]
COc1cccc(NC(=O)CSc2nnc(-c3cc(-c4ccccn4)nc4ccccc34)o2)c1 | 3.98 µM [rising, single point]
CCOc1cc2[nH]c(=O)n(CCCCC(=O)NCc3ccco3)c(=O)c2cc1OCC | 0.1 µM [rising, full curve]
O=C(COC(=O)CNC(=O)c1ccco1)NCCN1C(=O)CSC1=O | 0.1 µM [falling, full curve, poor fit]
CCN(CC)c1ncnc2c1cnn2C | 12.6 µM [rising, single point]
Cc1ccc(CN2C(=O)C(C)(C)Oc3ccc(C(=O)N4CCCCC4)cc32)cc1 | 12.6 µM [rising, partial curve]
Cc1cccn2c(=O)c3cc(C(=O)NCC4CCCO4)n(C)c3nc12 (centres undefined) | 2 µM [rising, partial curve]
Cc1ccc(O)c(CC(C)C)n1 | 3.16 µM [falling, full curve, poor fit]

Exported in CSV form: entries from further up.
SMILES,AC50
O=C(Nc1ccc(Cl)cc1)c1ccsn1,"0.0501 µM [falling, full curve, poor fit]"
Cc1c(NC(=O)C2CCCNC2=O)c(=O)n(-c2ccccc2)n1C (centres undefined),"31.6 µM [falling, partial curve]"
c1ccc2c(c1)oc1c(Nc3ccc4c(c3)OCO4)ncnc12,"1.58 µM [rising, full curve]"
